Measurements published in the supplement of paper PMC10849652.
This is one part of the list.

Protein sequences, listed by entry. Tags and fused reporters are not part of them. Lines headed by an entry give the natural chain unless they say otherwise; changes in a name come on top.
UniProt Q9Y2W6: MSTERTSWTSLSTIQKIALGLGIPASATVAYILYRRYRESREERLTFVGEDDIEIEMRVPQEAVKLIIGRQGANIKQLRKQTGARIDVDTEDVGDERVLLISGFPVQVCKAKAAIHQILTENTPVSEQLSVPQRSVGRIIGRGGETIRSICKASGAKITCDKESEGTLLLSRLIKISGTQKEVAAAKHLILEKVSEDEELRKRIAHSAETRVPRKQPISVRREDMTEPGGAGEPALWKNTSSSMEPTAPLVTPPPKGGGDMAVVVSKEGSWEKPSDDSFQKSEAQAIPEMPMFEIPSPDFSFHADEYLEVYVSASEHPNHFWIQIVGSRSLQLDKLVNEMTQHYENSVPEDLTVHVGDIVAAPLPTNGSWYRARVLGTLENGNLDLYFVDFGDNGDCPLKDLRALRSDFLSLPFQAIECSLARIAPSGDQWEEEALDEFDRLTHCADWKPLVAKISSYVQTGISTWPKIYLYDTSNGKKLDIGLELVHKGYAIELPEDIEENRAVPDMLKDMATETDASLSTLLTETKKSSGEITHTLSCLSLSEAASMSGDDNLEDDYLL
UniProt O60343: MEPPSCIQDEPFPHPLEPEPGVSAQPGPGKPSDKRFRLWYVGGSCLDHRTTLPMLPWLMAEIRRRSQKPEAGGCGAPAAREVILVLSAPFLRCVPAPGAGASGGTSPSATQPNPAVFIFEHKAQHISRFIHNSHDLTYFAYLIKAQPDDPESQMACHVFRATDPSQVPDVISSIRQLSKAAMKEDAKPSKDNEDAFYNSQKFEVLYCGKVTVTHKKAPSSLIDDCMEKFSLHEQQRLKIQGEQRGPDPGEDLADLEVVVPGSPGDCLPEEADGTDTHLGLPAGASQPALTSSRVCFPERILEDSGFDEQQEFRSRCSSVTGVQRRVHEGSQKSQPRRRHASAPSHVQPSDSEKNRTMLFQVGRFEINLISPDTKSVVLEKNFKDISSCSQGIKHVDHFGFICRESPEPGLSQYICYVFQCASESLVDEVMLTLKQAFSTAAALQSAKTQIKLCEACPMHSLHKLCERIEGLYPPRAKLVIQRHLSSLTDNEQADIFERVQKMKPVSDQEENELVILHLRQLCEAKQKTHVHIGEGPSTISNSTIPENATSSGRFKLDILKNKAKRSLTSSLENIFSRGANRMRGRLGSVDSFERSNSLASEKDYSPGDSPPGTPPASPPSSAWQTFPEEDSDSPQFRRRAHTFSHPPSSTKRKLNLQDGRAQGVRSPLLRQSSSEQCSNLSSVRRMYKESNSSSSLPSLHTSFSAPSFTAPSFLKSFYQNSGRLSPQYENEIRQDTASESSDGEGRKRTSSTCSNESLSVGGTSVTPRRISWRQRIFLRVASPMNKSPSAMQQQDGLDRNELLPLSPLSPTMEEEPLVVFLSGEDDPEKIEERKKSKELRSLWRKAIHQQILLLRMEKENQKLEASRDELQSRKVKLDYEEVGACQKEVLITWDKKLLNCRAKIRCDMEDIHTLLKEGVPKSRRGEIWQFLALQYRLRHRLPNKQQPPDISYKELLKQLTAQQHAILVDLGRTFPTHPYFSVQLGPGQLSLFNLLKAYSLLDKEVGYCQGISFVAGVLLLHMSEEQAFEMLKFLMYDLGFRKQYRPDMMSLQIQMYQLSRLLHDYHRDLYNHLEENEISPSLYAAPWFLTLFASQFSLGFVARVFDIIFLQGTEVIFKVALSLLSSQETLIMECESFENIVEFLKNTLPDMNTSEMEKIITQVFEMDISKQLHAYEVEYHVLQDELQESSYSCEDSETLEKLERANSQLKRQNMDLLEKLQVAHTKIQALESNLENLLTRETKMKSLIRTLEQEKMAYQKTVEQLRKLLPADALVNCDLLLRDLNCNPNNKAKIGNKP
UniProt Q9ULP9: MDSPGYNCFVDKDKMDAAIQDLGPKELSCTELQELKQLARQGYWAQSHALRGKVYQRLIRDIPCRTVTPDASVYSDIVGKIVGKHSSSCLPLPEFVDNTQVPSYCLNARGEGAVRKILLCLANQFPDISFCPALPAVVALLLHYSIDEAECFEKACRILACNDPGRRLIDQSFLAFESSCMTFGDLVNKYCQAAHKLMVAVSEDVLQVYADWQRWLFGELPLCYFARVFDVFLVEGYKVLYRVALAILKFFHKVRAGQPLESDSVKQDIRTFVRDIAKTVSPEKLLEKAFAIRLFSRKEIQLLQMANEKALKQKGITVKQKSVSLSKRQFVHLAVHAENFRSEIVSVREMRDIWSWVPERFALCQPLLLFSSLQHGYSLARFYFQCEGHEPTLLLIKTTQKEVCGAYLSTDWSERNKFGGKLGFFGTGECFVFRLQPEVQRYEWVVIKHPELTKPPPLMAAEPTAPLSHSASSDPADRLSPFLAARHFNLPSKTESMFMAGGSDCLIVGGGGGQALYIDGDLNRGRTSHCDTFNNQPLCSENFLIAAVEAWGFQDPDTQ
UniProt Q86W42: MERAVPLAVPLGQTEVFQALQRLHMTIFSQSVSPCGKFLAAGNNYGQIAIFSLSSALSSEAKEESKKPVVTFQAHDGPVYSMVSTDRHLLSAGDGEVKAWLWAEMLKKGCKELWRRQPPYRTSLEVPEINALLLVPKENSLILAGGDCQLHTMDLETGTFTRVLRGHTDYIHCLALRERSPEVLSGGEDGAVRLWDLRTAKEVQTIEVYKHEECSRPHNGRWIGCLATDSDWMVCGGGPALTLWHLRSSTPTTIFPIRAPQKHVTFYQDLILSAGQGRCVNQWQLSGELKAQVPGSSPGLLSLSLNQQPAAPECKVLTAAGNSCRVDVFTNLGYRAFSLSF
UniProt Q92734, whole entry, looked up: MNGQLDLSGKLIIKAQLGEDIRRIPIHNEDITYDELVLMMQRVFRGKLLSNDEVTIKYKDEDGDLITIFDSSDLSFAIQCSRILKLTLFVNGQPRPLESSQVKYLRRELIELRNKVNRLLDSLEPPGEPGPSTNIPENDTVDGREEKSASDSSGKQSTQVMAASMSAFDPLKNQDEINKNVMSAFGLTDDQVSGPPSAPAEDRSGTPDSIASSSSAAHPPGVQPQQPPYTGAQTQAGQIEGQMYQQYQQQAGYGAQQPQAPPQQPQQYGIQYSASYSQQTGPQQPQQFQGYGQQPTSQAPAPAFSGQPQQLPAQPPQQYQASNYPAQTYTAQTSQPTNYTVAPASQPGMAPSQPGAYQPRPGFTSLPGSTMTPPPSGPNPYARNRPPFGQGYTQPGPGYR
UniProt O75663: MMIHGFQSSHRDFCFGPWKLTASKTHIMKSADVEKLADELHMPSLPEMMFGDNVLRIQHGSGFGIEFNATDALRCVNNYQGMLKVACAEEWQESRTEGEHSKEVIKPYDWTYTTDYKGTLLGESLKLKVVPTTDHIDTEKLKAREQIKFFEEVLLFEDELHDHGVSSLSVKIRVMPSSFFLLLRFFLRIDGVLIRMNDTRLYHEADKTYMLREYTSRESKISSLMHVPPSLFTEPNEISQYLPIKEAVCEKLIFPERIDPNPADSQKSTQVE
UniProt Q6NUS6: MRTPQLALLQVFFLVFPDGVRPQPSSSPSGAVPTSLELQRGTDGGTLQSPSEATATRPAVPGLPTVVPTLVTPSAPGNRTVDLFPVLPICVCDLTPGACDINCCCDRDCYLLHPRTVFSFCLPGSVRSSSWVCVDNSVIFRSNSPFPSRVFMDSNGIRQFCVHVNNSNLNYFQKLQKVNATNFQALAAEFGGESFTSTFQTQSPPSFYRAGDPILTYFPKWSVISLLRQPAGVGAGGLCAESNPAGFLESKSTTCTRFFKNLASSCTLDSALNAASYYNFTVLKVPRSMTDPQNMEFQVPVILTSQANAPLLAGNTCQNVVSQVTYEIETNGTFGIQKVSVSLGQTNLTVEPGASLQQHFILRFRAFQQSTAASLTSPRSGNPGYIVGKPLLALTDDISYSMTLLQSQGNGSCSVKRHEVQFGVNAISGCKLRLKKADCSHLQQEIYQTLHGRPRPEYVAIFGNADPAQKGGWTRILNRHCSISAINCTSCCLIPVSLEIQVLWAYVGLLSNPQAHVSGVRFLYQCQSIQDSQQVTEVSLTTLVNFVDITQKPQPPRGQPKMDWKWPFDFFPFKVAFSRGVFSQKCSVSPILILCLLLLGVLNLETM
UniProt Q9Y5J7: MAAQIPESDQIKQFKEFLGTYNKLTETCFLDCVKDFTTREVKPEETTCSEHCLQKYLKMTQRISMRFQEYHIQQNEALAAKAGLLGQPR
UniProt O14776: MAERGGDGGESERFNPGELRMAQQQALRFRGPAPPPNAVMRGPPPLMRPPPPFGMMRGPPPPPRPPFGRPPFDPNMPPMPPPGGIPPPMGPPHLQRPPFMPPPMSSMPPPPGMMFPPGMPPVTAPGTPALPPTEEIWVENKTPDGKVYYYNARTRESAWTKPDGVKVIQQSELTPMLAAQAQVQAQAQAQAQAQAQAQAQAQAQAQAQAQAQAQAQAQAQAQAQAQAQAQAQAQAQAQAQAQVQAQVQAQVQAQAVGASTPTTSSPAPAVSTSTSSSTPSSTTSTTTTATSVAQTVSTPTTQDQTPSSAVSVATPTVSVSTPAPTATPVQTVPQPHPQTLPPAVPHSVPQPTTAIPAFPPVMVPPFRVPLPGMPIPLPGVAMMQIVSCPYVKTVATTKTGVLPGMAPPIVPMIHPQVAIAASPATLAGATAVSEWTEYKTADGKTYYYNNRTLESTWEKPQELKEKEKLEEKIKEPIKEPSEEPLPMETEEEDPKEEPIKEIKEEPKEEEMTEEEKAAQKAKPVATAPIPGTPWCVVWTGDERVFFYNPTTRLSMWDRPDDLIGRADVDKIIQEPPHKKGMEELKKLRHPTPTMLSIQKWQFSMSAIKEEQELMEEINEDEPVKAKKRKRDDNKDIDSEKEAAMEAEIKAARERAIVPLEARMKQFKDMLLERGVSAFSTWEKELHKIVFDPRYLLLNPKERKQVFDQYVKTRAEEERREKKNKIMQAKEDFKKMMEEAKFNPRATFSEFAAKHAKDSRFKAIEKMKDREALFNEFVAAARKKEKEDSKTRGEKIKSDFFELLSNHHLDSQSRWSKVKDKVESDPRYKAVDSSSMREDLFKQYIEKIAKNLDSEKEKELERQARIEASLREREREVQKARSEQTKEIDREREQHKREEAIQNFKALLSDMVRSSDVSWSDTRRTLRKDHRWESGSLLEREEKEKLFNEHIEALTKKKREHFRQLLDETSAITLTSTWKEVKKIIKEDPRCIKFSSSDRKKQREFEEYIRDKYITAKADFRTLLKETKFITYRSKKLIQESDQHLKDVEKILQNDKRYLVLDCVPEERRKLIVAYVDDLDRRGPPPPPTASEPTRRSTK
UniProt Q9UGI8: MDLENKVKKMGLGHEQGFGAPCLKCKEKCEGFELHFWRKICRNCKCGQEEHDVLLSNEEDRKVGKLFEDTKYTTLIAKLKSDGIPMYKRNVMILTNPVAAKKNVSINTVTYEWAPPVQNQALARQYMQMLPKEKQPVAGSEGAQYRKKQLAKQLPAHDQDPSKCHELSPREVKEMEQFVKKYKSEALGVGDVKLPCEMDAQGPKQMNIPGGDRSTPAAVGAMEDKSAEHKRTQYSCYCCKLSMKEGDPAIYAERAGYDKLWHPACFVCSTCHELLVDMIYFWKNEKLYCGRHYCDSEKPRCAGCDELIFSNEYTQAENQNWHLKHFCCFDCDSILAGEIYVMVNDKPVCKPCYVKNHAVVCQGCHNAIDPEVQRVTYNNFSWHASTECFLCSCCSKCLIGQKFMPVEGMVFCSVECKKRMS

What was measured:
Experiment in all cases: log2 fold change, soluble protein after heating vs DMSO (PISA); higher = thermal stabilisation; K562 cells, 10 uM, 30 min; active = over 0.2 and 3.5 SD of the protein, either way, in both replicates (recomputed)
[1] = compound: C1=CC=C(C=C1)[C@H](COC2=CC3=C(C=C2)NC(=O)N3)NC(=O)C4=CC=CN(C4=O)CC5=CC(=C(C=C5)F)F
How it was run: (§1)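 K562 cells at 2×10^6 cells/mL were exposed to 10 μM compound for 30 min, then aliquots were heated for 3 min across 48°C-58°C, pooled, and extracted in PBS containing 0.5% NP-40 at 4°C. The supernatant after 21,000xg for 90 min was taken as soluble protein and measured by TMTpro 16plex LC-MS/MS with channel sums equalised. Thermal stability is reported relative to control samples, with values from duplicates. Fold changes are given on a log2 scale.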

[2] = compound: CC1=C(SC2=C1C(=N[C@H](C3=NN=C(N32)C)CC(=O)N)C4=CC=C(C=C4)Cl)C
How it was run: as §1

[3] = compound: CC1=C2C(=CC=C1)N=C(N(C2=O)C3=CC=CC=C3C)CN4C=NC5=C(N=CN=C54)N
How it was run: as §1

[4] = compound: Cc1sc2c(c1C)C(c1ccc(Cl)cc1)=N[C@@H](CC(=O)OC(C)(C)C)c1nnc(C)n1-2
How it was run: as §1

[5] = compound: c1ccc([C@@H]2C[C@H]2NC2CCNCC2)cc1
How it was run: as §1

Measured: log2 fold change

TDRKH (UniProt Q9Y2W6)
inactive: [1] -0.015 | [2] 0.005 | [3] 0.041 | [4] -0.01 | [5] -0.006

TBC1D4 (UniProt O60343)
inactive: [1] -0.054 | [2] 0.048 | [3] 0 | [4] -0.02 | [5] -0.026

TBC1D24 (UniProt Q9ULP9)
inactive: [1] -0.108 | [2] 0.152 | [3] 0.02 | [4] -0.029 | [5] -0.061

THOC6 (UniProt Q86W42)
inactive: [1] 0.033 | [2] 0.025 | [3] 0.019 | [4] -0.002 | [5] -0.018

TFG (UniProt Q92734)
inactive: [1] 0.028 | [2] 0.026 | [3] -0.039 | [4] 0.005 | [5] 0.077

TIPRL (UniProt O75663)
inactive: [1] -0.078 | [2] 0.07 | [3] 0.083 | [4] 0.001 | [5] -0.007

TCTN3 (UniProt Q6NUS6)
inactive: [1] 0.045

TIMM9 (UniProt Q9Y5J7)
inactive: [1] 0.016 | [2] 0.137 | [3] 0.081 | [4] -0.059 | [5] -0.082

TCERG1 (UniProt O14776)
inactive: [1] -0.1 | [2] 0.106 | [3] 0.182 | [4] -0.065 | [5] -0.033

TES (UniProt Q9UGI8)
inactive: [1] -0.021 | [2] 0.017 | [3] -0.002 | [4] 0.005 | [5] -0.013
